Measured values taken from PubChem BioAssay AID662 (National Center for Advancing Translational Sciences (NCATS), 2007).
Some of the results follow. The main result of the screen is listed elsewhere. These columns were measured beside it and carry no call. Compounds called inactive in the main read-out are mostly missing here. The note in brackets gives the kind of curve behind each potency; many fits are weak.

Experiment: Cell signaling CRE-BLA (Fsk stim)
Conditions: CHO CRE-bla reporter (cAMP response element driving beta-lactamase), forskolin EC10, beta-lactamase ratio; measured here: 460 nm blue channel
Summary of the method: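 Modulation of forskolin signalling: compounds in titration series added with EC10 NKH 477 to CHO cells carrying a CRE-driven beta-lactamase reporter, 3 h, 37C. CCF4 FRET ratio (460/530 nm, ex 405 nm) gives %activity and AC50.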
For `O=C(NCN1C(=O)C2C3C=CC(C3)C2C1=O)Nc1ccccn1` (configuration not stated), the AC50 was 1.58 µM [rising, partial curve].
For `O=C(N1CCN(c2ccccn2)CC1)N1c2ccccc2Sc2ccccc21`, the AC50 was 10 µM [rising, partial curve].
In the case of `Clc1ccccc1OCCn1cnc2ccccc21`, the AC50 is reported as 3.16 µM [rising, partial curve].
With `CCC(=O)NCCn1c(C)cc2ccccc21` the AC50 was 10 µM [rising, partial curve].
For `COC(=O)C1=C(C)N(c2ccc(OC)c(OC)c2)C(=O)C1`, the AC50 was 15.8 µM [falling, single point].
In the case of `Cc1ccc2cc3cc(C(=O)N4CCCCC4C)oc3nc2c1` (configuration not stated), the AC50 is reported as 2.51 µM [rising, full curve].
With `CCOC(=O)c1c(C)oc2cc(Br)c(OC(=O)N3CCOCC3)cc12` the AC50 was 12.6 µM [rising, partial curve].
With `Cc1onc(-c2ccccc2Cl)c1C(=O)OCn1nnc2ccccc2c1=O` the AC50 was 0.00398 µM [falling, full curve, poor fit].
With `O=C(CSc1nnc(C2CC2)n1Cc1ccccc1)N1CCN(S(=O)(=O)c2ccccc2)CC1` the AC50 was 0.0794 µM [falling, full curve].
In the case of `COC(=O)c1ccc(CSc2nnnn2-c2ccc(C)cc2C)o1`, the AC50 is reported as 0.794 µM [rising, full curve].
For `CC(C)n1c(SCC(=O)Nc2ccc3c(c2)OCO3)nc2c1c(=O)n(C)c(=O)n2C`, the AC50 was 7.94 µM [rising, partial curve].
For `Cc1nc2sc(C(c3cccs3)N3CCC(C(N)=O)CC3)c(O)n2n1` (configuration not stated), the AC50 was 3.98 µM [rising, single point].
With `CCOc1ccc(-n2cc(C(=O)N3CCC(C)CC3)c3cc(OC)c(OC)cc3c2=O)cc1` the AC50 was 15.8 µM [rising, partial curve].
With `CCCC(=O)Nc1cc(-c2nn(C)c(=O)c3ccccc23)ccc1N1CCCCC1` the AC50 was 2.51 µM [rising, full curve].
In the case of `CN(C)c1ncc2nc(-c3ccc(F)cc3)c(=O)n(-c3ccccc3)c2n1`, the AC50 is reported as 3.98 µM [rising, partial curve].
In the case of `COc1ccc2c(=O)c3c(=O)n(Cc4ccco4)c(-c4ccccc4)nc3oc2c1`, the AC50 is reported as 5.01 µM [rising, partial curve].
For `CCOc1ccc(NC(=O)CN(C)CC(=O)Nc2ccccc2C#N)cc1OCC`, the AC50 was 5.01 µM [falling, single point].
In the case of `c1ccc(-c2cccc(N3CCC4(CCNCC4)CC3)c2)cc1`, the AC50 is reported as 25.1 µM [rising, single point].
For `Cc1ccc(-c2nnn(CC(=O)NCC3COCCO3)n2)o1` (configuration not stated), the AC50 was 0.126 µM [falling, partial curve, poor fit].
In the case of `Cc1c(Nc2cc(=O)oc3ccccc23)c(=O)n(-c2ccccc2)n1C`, the AC50 is reported as 0.00316 µM [falling, partial curve, poor fit].
With `O=C(CCc1nc(-c2ccccc2F)no1)NCCN1CCOCC1` the AC50 was 25.1 µM [falling, single point].
With `O=C(Nc1cccc(-c2cn3cccnc3n2)c1)c1ccc(Br)o1` the AC50 was 1.26 µM [falling, partial curve].
With `O=C(NC1CCCCCC1)C1CCCN(S(=O)(=O)c2cccs2)C1` (configuration not stated) the AC50 was 0.316 µM [falling, partial curve].
For `O=C(Cc1ccccc1)Nc1ccc(-c2nnc(-c3ccco3)o2)cc1`, the AC50 was 1.58 µM [falling, partial curve, poor fit].
In the case of `Cc1cn2nc(N)c3ccccc3c2n1`, the AC50 is reported as 25.1 µM [rising, single point].
In the case of `Cc1ccc(Cn2c(SCCN3CCOCC3)nc3c2c(=O)n(C)c(=O)n3C)cc1`, the AC50 is reported as 12.6 µM [rising, single point].
With `Cc1nc(SCn2nnc3ccccc3c2=O)nc(C)c1C` the AC50 was 5.01 µM [rising, partial curve].
With `COc1ccc(-n2c(=O)cc(N3CCN(c4ccccc4)CC3)[nH]c2=O)cc1` the AC50 was 5.01 µM [falling, partial curve].
In the case of `O=C(COC(=O)Cn1cnc2ccccc21)NCCC1=CCCCC1`, the AC50 is reported as 5.01 µM [falling, single point].
For `COc1ccc(N(CC(=O)Nc2cc(OC)ccc2OC)S(C)(=O)=O)cc1`, the AC50 was 0.00316 µM [falling, full curve, poor fit].
With `CCc1nnc(SCC(=O)NC2CCCCC2)nc1CC` the AC50 was 0.00501 µM [falling, full curve, poor fit].
For `OC1CCN(c2c3c(nc4cc(-c5cccc(F)c5)nn24)CCCC3)CC1`, the AC50 was 1.58 µM [rising, full curve].
In the case of `CCOC(=O)c1cnc2ccc(Br)cc2c1NCCO`, the AC50 is reported as 0.00316 µM [falling, full curve, poor fit].
For `COc1ccccc1C(=O)OCC(=O)Nc1ccc(OC(F)F)cc1`, the AC50 was 5.01 µM [falling, single point].
For `CCOc1ccc(-n2nc(C(=O)NCCOC)c3ccccc3c2=O)cc1`, the AC50 was 0.501 µM [rising, full curve].
In the case of `COc1cc(C2NC(=O)NC(C)=C2C(=O)OC2CCCCC2)cc(Br)c1O` (configuration not stated), the AC50 is reported as 15.8 µM [rising, single point].
For `Cc1cc(C)n(-c2ccc(Cl)c(C(=O)O)n2)n1`, the AC50 was 5.01 µM [falling, single point].
With `CCN(CCCNC(=O)CN(C)S(=O)(=O)c1cccc2nsnc12)c1cccc(C)c1` the AC50 was 7.94 µM [rising, partial curve].
In the case of `CC(C)CCNC(=O)NC(=O)CN1C(=O)NC2(CCCCC2)C1=O`, the AC50 is reported as 3.98 µM [falling, single point].
For `O=C(COc1cccc(Oc2ccccc2)c1)Nc1ncccn1`, the AC50 was 5.01 µM [falling, single point].
For `COc1cc(NC(=O)c2ccccc2)cc(OC)c1`, the AC50 was 12.6 µM [falling, partial curve].
With `Cc1cc(Cl)ccc1OCC(=O)Nn1c(C)ccc1C` the AC50 was 12.6 µM [falling, partial curve].
For `COc1ccc(C(=O)NCc2ccccc2OC)c(OC)c1`, the AC50 was 1.26 µM [rising, partial curve].
For `Cc1csc(NC(=O)c2cccc(Cn3nc(C)c(Br)c3C)c2)n1`, the AC50 was 10 µM [rising, partial curve].
With `CCC(C)Sc1nc2c(c(=O)[nH]c(=O)n2C)n1Cc1ccccc1Cl` (configuration not stated) the AC50 was 3.98 µM [rising, partial curve].
For `COc1ccc2[nH]c(=O)c(CN(CC3CCCO3)C(=O)Nc3ccccc3)cc2c1` (configuration not stated), the AC50 was 20 µM [rising, single point].
In the case of `CC1=C(/C=C/C(C)=C/C=C/C(C)=C\C=O)C(C)(C)CCC1`, the AC50 is reported as 15.8 µM [falling, partial curve].
In the case of `CCOC(=O)C1CCCN(C(=O)CN2C(=O)c3ccccc3C2=O)C1` (configuration not stated), the AC50 is reported as 1 µM [falling, partial curve].
In the case of `CCc1nnc(NC(=O)CSc2nnc(-c3ccoc3C)n2-c2cccc(C)c2)s1`, the AC50 is reported as 12.6 µM [rising, partial curve].
For `Nc1c(C(=O)c2ccccc2)oc2ccc(Br)cc12`, the AC50 was 25.1 µM [rising, single point].
With `CCOC(=O)CCCNC(=O)COC(=O)c1cccc(C)c1O` the AC50 was 0.398 µM [rising, single point].
With `O=C(COc1ccccc1)Nc1ccccc1N1CCCCC1` the AC50 was 7.94 µM [rising, partial curve].
In the case of `O=C(Nc1cccnc1)c1c(F)c(F)c(F)c(F)c1F`, the AC50 is reported as 12.6 µM [falling, partial curve].
In the case of `O=C(CC(CC(=O)c1ccccc1)C(=O)O)c1ccccc1`, the AC50 is reported as 3.16 µM [falling, partial curve].
For `Cc1nc(SCC(=O)Nc2ccc3c(c2)OCCO3)c2oc3ccccc3c2n1`, the AC50 was 0.398 µM [rising, full curve].
With `N#CC(C(=O)OC1CCCCC1)c1nc2ccccc2nc1N1CCOCC1` (configuration not stated) the AC50 was 15.8 µM [rising, partial curve].
In the case of `CCN(CC)C(=O)c1sc(NC(=O)Cc2cccs2)c(C#N)c1C`, the AC50 is reported as 10 µM [rising, partial curve].
For `Cc1ccc(C)c(-c2nnc(OCC(=O)Nc3cc(C)on3)c3ccccc23)c1`, the AC50 was 10 µM [rising, single point].
With `CCCCN(CCCC)S(=O)(=O)c1ccc2oc(C(=O)N3CCOCC3)c(C)c2c1` the AC50 was 25.1 µM [rising, single point].
In the case of `COc1ccccc1-c1noc(-c2cc(OC)c(OC)c(OC)c2)n1`, the AC50 is reported as 0.794 µM [rising, full curve].
With `CC[C@]1(O)C[C@@H]2CN(CCc3c([nH]c4ccccc34)[C@](C(=O)OC)(c3cc4c(cc3OC)N(C=O)[C@H]3[C@@](O)(C(=O)OC)[C@H](C(=O)OC)[C@@]5(CC)C=CCN6CC[C@]43[C@H]65)C2)C1` the AC50 was 0.501 µM [rising, full curve].
With `Nc1c(C(=O)NCCN2CCOCC2)c2nc3ccccc3nc2n1-c1ccccc1` the AC50 was 3.16 µM [falling, full curve].
For `C=C(C)COc1ccc(-c2nc(N)ncc2-c2ccc(OC)cc2)c(O)c1`, the AC50 was 12.6 µM [falling, partial curve].
For `COc1ccc(Cc2nnn(CC(=O)O)n2)cc1`, the AC50 was 0.158 µM [falling, full curve].
In the case of `CCOc1ccc2nc(SCC(=O)NC3CCS(=O)(=O)C3)[nH]c2c1` (configuration not stated), the AC50 is reported as 0.0794 µM [falling, full curve].
In the case of `COCCn1c(=O)c(-c2cc(F)cc(F)c2)nc2cnc(N3CCN(C)CC3)nc21`, the AC50 is reported as 12.6 µM [rising, partial curve].
With `COC(=O)c1cccc(NC(=O)CN2CCC(NC(=O)c3cc(OC)c(OC)c(OC)c3)CC2)c1` the AC50 was 12.6 µM [rising, partial curve].
